{"sequences": {"note": "Chains of the proteins cited; added tags and fusions are not shown.", "UniProt Q8NER1, whole entry, looked up": "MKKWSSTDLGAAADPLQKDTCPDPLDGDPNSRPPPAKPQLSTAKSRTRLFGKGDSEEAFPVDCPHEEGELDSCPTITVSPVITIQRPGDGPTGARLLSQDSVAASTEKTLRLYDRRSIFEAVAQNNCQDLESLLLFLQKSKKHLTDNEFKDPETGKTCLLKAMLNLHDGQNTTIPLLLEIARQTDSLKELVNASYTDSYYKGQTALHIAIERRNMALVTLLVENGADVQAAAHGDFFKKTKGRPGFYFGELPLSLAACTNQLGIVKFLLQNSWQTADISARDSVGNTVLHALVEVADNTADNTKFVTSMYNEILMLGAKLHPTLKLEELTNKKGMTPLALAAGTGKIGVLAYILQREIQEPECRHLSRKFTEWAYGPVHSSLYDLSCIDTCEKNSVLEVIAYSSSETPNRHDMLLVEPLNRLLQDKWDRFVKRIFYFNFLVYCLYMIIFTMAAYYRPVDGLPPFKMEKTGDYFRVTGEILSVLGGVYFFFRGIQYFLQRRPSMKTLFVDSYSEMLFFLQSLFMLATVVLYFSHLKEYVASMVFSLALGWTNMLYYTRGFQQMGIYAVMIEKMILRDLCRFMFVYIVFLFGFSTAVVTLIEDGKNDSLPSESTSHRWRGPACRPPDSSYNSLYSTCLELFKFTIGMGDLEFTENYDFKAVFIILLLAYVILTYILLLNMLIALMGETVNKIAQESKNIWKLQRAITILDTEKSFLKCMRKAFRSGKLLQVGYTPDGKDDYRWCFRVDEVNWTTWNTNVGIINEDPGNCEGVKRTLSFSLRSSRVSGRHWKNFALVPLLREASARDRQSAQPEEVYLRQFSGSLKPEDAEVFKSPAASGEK"}, "source": "PubChem BioAssay AID540275", "about": "(National Center for Advancing Translational Sciences (NCATS), 2011)", "note": "The campaign covered roughly 320,000 compounds. About 620 (0.19%) were called active. Inconclusive results, whose numbers are uncertain, are shown with a selection of clear calls. Rule as the data show it: active = activation above about 80%; inconclusive = between about 30% and that limit; inactive = weaker than that.", "data": [{"target": "Transient receptor potential cation channel subfamily V member 1 (Homo sapiens) (UniProt Q8NER1)", "test": "HTS Assay for Compounds that Act as Agonists of the Vanilloid Receptor 1; also: 0% is about no effect", "settings": "TRPV1-expressing cells, Fluo-8 calcium influx, agonist mode; at 8.33 µM, hits give high values", "method_in_brief": "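Cells expressing TRPV1 were dye-loaded with Fluo-8 and read kinetically: 10 s baseline, 3 min after compound (agonist portion), then 2 min after EC20 capsaicin (allosteric enhancer portion). Calcium-bound dye fluorescence at 480/520 nm.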", "values": [{"compound": "Cc1cccc(N2CCN(C(=O)NCc3ccc(F)cc3)CC2)c1C", "activation": "inconclusive: 73.8%"}, {"compound": "CCn1c(SC(C)C(=O)Nc2ccc3c(c2)OCCO3)nnc1C1CC1", "note": "(configuration not stated)", "activation": "inactive: 1.45%"}, {"compound": "O=C(/C=C/c1cc([N+](=O)[O-])ccc1OC(F)F)Nc1cccc(OC(F)F)c1", "activation": "inactive: -2.21%"}, {"compound": "CCc1ccc2oc(-c3cc(N=Cc4cccc(OC)c4O)ccc3O)nc2c1", "activation": "inactive: -3.2%"}, {"compound": "Cc1cc(C(=O)Nc2cccc(O)c2)c(C)o1", "activation": "inconclusive: 45.9%"}, {"compound": "Cc1ccc(NC(=O)c2ccc(NCCN)c([N+](=O)[O-])c2)cc1", "activation": "inactive: 6.16%"}, {"compound": "COc1ccc(NC(=O)CSc2ccc(C)cc2)cc1", "activation": "inconclusive: 32%"}, {"compound": "CC(C)c1cc(C(=O)N/N=C/c2cccnc2)cs1", "activation": "inconclusive: 62.1%"}, {"compound": "COc1ccc(NC(=O)[C@@H]2CCCN2C(=O)[C@@H]2Cc3ccccc3CN2C(=O)OC(C)(C)C)cc1", "activation": "inconclusive: 46.8%"}, {"compound": "NC(=O)c1ccc(NC(=O)CNC(c2ccccc2)c2ccccc2)cc1", "activation": "inconclusive: 30.6%"}, {"compound": "Cc1ccc2cc3c(NC(=O)c4ccco4)nn(CC(C)C)c3nc2c1", "activation": "inconclusive: 73.1%"}, {"compound": "O=C(NCCc1ccccc1)c1ccc([N+](=O)[O-])cc1", "activation": "inconclusive: 70.9%"}, {"compound": "Cc1cc(Cl)cc(C)c1OCCCCCn1ccnc1", "activation": "inactive: 5.34%"}, {"compound": "CCOC(=O)CSc1nc2ccccc2c(=O)n1CC(C)C", "activation": "inconclusive: 32.4%"}, {"compound": "O=C1C(Oc2ccc(Cl)cc2)C(c2ccc3c(c2)OCO3)N1CC1CCCO1", "note": "(configuration not stated)", "activation": "inconclusive: 42.6%"}, {"compound": "CCCCNC(=S)N1CCn2cccc2C1c1ccc(F)cc1", "note": "(configuration not stated)", "activation": "inconclusive: 46.4%"}, {"compound": "O=C(NCc1ccccn1)C1CCC(CNS(=O)(=O)c2cccc3nsnc23)CC1", "note": "(configuration not stated)", "activation": "inactive: 0.0472%"}, {"compound": "COc1cccc(C(=O)Nc2cc(NC(=O)c3cccs3)ccc2C)c1OC", "activation": "inconclusive: 33.2%"}, {"compound": "C[C@@H]1CCC(=O)N(CC[C@H](Sc2ccccc2)c2ccccc2)CC1", "activation": "inconclusive: 74.8%"}, {"compound": "O=C(N/N=C/c1ccc(OC(F)F)cc1)c1cccc(S(=O)(=O)N2CCOCC2)c1", "activation": "inconclusive: 51.5%"}, {"compound": "O=C(c1cc(-c2ccccc2)nn1-c1ccccc1)N1CCN(S(=O)(=O)c2cccc(F)c2)CC1", "activation": "inconclusive: 30.2%"}, {"compound": "COc1ccc(-c2csc(N)n2)cc1F", "activation": "inactive: 3.65%"}, {"compound": "O=C(c1ccco1)N1CCN(c2ccc([N+](=O)[O-])cc2Cl)CC1", "activation": "inconclusive: 58.3%"}, {"compound": "COc1ccc(C(C)=O)cc1COC(=O)CNC(=O)c1ccc(Cl)cc1", "activation": "inactive: -4.85%"}, {"compound": "Cc1cc(C)n(-c2cc(N3CCOCC3)ncn2)n1", "activation": "inactive: -1.15%"}, {"compound": "O=C(Nc1cccc(-c2csc(Nc3ccc(Cl)cc3)n2)c1)c1cccc(C(F)(F)F)c1", "activation": "inactive: 2.34%"}, {"compound": "Cc1ccc(C(=O)Nc2ccc(N3CCCC3)cc2)cc1", "activation": "inconclusive: 77.9%"}, {"compound": "CC(C)(C)c1ccc(C(=O)Nc2ccc(Cl)cc2)cc1", "activation": "active: 80.4%"}, {"compound": "O=C(CSc1cccc2cccnc12)N/N=C/c1ccc(O)cc1", "activation": "inactive: 3.59%"}, {"compound": "S=c1nc(NCc2cccc(Cl)c2)c2ccccc2[nH]1", "activation": "inactive: 15.8%"}, {"compound": "Cc1[nH]c2ccccc2c1/C=N/NC(=O)c1cccc(Br)c1", "activation": "inactive: -9.29%"}, {"compound": "COc1ccc(-n2ncc3c(NCCCN4CCOCC4)ncnc32)cc1", "activation": "inactive: 1.22%"}, {"compound": "COC(=O)C1=C(C)NC(C)=C(C(=O)OC)C1C(=O)OCC(=O)c1ccc(Br)cc1", "activation": "inactive: -5.89%"}, {"compound": "COc1cc(/C=N/NC(=O)/C(=C/c2ccccc2)CCO)ccc1O", "activation": "inactive: 0.819%"}, {"compound": "CC(C)C[C@H](NC(=O)c1[nH]cnc1C(=O)Nc1ccccc1)C(=O)OC(C)(C)C", "activation": "inconclusive: 65.6%"}, {"compound": "O=c1c2ccccc2nc(/C=C/c2cccc(Br)c2)n1CCCO", "activation": "inconclusive: 41.4%"}, {"compound": "CCOc1ncccc1C(=O)Nc1ccc(-c2ccc3nnc(C)n3n2)cc1", "activation": "inconclusive: 45.8%"}, {"compound": "CCC(C)NCC(O)(c1ccc(Cl)cc1)c1ccc(Cl)cc1", "note": "(configuration not stated)", "activation": "inactive: 5.01%"}, {"compound": "CCOc1ccccc1N1CCN(C(=O)Nc2ccc(F)c(Cl)c2)CC1", "activation": "inconclusive: 61.9%"}, {"compound": "Cc1cc(-c2nc(-c3ccc(C(C)(C)C)cc3)no2)no1", "activation": "inconclusive: 45.7%"}, {"compound": "CCc1ccc(-c2cc(C)no2)cc1S(=O)(=O)N1CCC(C)CC1", "activation": "inconclusive: 46.1%"}, {"compound": "O=C(NC1CCCC1)c1ccc(CSCc2ccccc2F)o1", "activation": "inconclusive: 37.3%"}, {"compound": "CCOc1ccccc1NC(=O)c1nc(S(=O)(=O)Cc2cccc(C)c2)ncc1Cl", "activation": "inactive: 4.2%"}, {"compound": "CCOC(=O)c1sc(-c2ccccc2)cc1NC(=O)Nc1ccc([N+](=O)[O-])cc1", "activation": "inconclusive: 35.2%"}, {"compound": "C=CCN(c1ccc(F)cc1)S(=O)(=O)c1cc(C(=O)NC2CCC(O)CC2)ccc1Cl", "note": "(configuration not stated)", "activation": "inconclusive: 62.1%"}, {"compound": "O=C(NCc1ccccc1)c1ccc(C(=O)N(C2CCCCC2)C2CCCCC2)cc1", "activation": "inconclusive: 40.4%"}, {"compound": "O=C(Nc1ccc2c(c1)CCCN2C(=O)c1cccs1)c1cccc(F)c1", "activation": "inconclusive: 30.4%"}, {"compound": "Cc1cccc(-c2nc(CN3CCN(Cc4cccc(F)c4)CC3)c(C)o2)c1", "activation": "inactive: 1.68%"}, {"compound": "CCOC(=O)c1c(C)oc2c1c(C(c1cccnc1)N1CCOCC1)c(O)c1ccccc12", "note": "(configuration not stated)", "activation": "inconclusive: 71.9%"}, {"compound": "Cc1c(NC(=O)C(C)C)cccc1-c1nc2ncccc2o1", "activation": "inactive: 3.12%"}, {"compound": "O=C(/C=C/c1ccccc1Cl)NCc1ccccc1", "activation": "inconclusive: 36.1%"}, {"compound": "CCN(CC)c1ccc2cc(-c3nnc(Nc4ccc(C)cc4)s3)c(=O)oc2c1", "activation": "inconclusive: 70.6%"}, {"compound": "Cc1ccc(NC(=O)n2ccc(-c3ccc(-n4ccnc4)cc3)n2)cc1", "activation": "inconclusive: 33.9%"}, {"compound": "Cc1ccc(-c2nnc(-n3ncc(C#N)c3N)c3ccccc23)cc1C", "activation": "inactive: 16.3%"}, {"compound": "CCOc1cc(N2CCOCC2)c(OCC)cc1NC(=O)c1nc2nc(C)cc(C)n2n1", "activation": "inactive: 1.15%"}, {"compound": "O=C(NCCSc1ccccc1)c1ccc(Br)cc1", "activation": "inconclusive: 64.3%"}, {"compound": "CC(C)CN1CCC(=O)N([C@H](CSc2ccccc2)Cc2ccccc2)CC1", "activation": "inconclusive: 34.2%"}]}]}
